The results are deposited in PubChem (AID912; NCATS, 2007).

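A cell-based FRET test of anthrax lethal toxin entry, tracked through the 460 nm emission signal; the cell line is not named here. Each compound was tested as a concentration series from about 0.0005 to 40 µM. The number is the fitted AC50 of the 460 nm signal alone; lower values mean a more potent effect. A falling signal goes with compounds filed as inhibitors or cytotoxic, a rising one with activators or fluorescent compounds (inferred from the filed classes).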

Values are in µM. Common to all entries: measured here: 460 nm channel. This is a side read-out of the assay, for part of the compounds, not drawn at random. A potency from a partial, single-point or poor curve is only a rough figure. The first word of each remark tells which way the curve ran; it can be opposite to the aim of the assay.

compound	AC50 (µM)	curve
O=c1c(-c2cc(F)cc(F)c2)nc2cnc(N3CCOCC3)nc2n1C[C@H]1CCCO1	10	rising, partial curve
CCCCNc1nc(C)nc2c1nc(-c1ccccc1)n2C1CCN(Cc2ccccc2)C1 (centres unmarked)	15.85	falling, single point
COC(=O)c1ccc(-c2n[nH]c(=O)c3ccccc23)cc1	12.59	rising, single point
O=C(NC1CCCC1)C(c1ccc(O)cc1)N(CC1CCCO1)C(=O)C1COc2ccccc2O1 (centres unmarked)	6.31	rising, partial curve
Cn1c(CN2CCOCC2)nc2cc(NC(=O)c3ccc(F)cc3)ccc21	5.012	falling, single point
CCCCCCCC/C=C\CCCCCCCC(=O)N[C@@H](CO)Cc1ccc(O)cc1	19.95	falling, partial curve
CC[N+](C)(CC)CCN1C(=O)c2ccccc2S1(=O)=O	0.1	falling, single point
O=C(O)C1=CCCN(CCON=C(c2ccccc2)c2ccccc2)C1	31.62	falling, partial curve
O=C1C2CC=CCC2C(=O)N1SC(Cl)(Cl)Cl (centres unmarked)	3.981	falling, full curve
COc1ccc(-c2nn3c(-c4cccc(C)c4)nnc3s2)cc1OC	0.02512	rising, full curve, poor fit
N#C/C=C/C#N	15.85	falling, partial curve
C[C@@H](C(=O)Nc1ccc2ccccc2c1)[C@H]1C[C@]1(C)[C@H](NC(=O)c1ccccc1)c1ccccc1	1.995	falling, full curve
COc1ccc(C(=O)N2CCC3(CCCN(Cc4ccccc4OC)C3)CC2)cc1	10	falling, single point
CCNc1ncc2nc(-c3cc(F)cc(F)c3)c(=O)n(CCc3ccccc3)c2n1	0.5012	rising, full curve
COCCn1c(=O)c(-c2ccccc2)nc2cnc(N3CCOCC3)nc21	3.981	rising, full curve
CCCc1nc(SCC(=O)N2CCCc3ccccc32)c2c(=O)n(C)c(=O)n(C)c2n1	19.95	falling, single point
N#Cc1cccc(-c2nc(NCc3cccnc3)c3ccccc3n2)c1	25.12	falling, single point
CC[C@H](C)C(=O)O[C@@H]1C[C@H](C)C=C2C=C[C@H](C)[C@@H](CC[C@H]3C[C@@H](O)CC(=O)O3)[C@H]21	12.59	rising, partial curve
CCN1C2=C(C(=O)CCC2)C(c2ccc(O)c(Br)c2)C2=C1CCCC2=O	10	rising, partial curve
O=c1c2[nH]c3ccccc3c2ncn1Cc1ccncc1	1.585	falling, partial curve, poor fit
CS(=O)(=O)N1CCN(c2ccccc2NC(=O)c2ccc(-c3ccc(Cl)cc3Cl)o2)CC1	0.01259	rising, full curve, poor fit
Cc1oc(-c2cccc(Cl)c2)nc1CN1CCC(C(=O)N2CCN(c3ccccc3F)CC2)CC1	31.62	falling, single point
CCC(=O)n1nc(-c2ccc(OC)cc2)nc1N	5.012	rising, single point
CCCNc1oc(-c2cccc3ccccc23)nc1C#N	19.95	rising, partial curve
N#CCCN(CCC#N)C(=O)COc1ccc(Cl)cc1Cl	3.162	rising, single point
COc1ccc(CCNc2nc(-c3sc(N)nc3C)cs2)cc1OC	31.62	falling, single point
Cc1nc2c(C(=O)NCc3ccco3)cnn2c(C)c1Cc1ccc(F)cc1Cl	5.012	falling, single point
COc1ncc2nc(-c3ccccc3)c(=O)n(C3CC3)c2n1	31.62	falling, single point
O=C1OC(=O)[C@@H]2[C@@H]1[C@@H]1CC[C@H]2O1	31.62	rising, single point
c1ccc(CCCCN2CCC(c3ccccc3)CC2)cc1	3.981	falling, partial curve
CS(=O)(=O)Nc1ccc(Nc2c3ccccc3nc3ccccc23)cc1	0.631	falling, partial curve
Cn1c(=O)[nH]c(=O)c2c1nc(Br)n2CC(O)c1ccccc1 (centres unmarked)	0.1259	rising, partial curve
CN(C)c1ncc2nc(-c3ccc(Cl)cc3)c(=O)n(-c3ccccc3)c2n1	10	rising, partial curve
CCCCCOc1ccc(C(=O)N(Cc2ccco2)C2CCS(=O)(=O)C2)cc1 (centres unmarked)	25.12	rising, single point
CC(=O)OC[C@H]1O[C@@H](O/N=C(\C)CCC(=O)OC[C@@H]2O[C@H](C#Cc3ccccc3)C=C[C@@H]2Oc2ccc(C)cc2)[C@H](OC(C)=O)[C@@H](OC(C)=O)[C@H]1OC(C)=O	0.2512	rising, partial curve, poor fit
Cc1cc(C)cc(N(CC(=O)N2CCN(c3ccccc3)CC2)S(=O)(=O)c2c(C)noc2C)c1	12.59	falling, partial curve
COC(=O)C1=CN(C)C=C(C(=O)OC)C1c1ccc(Cl)cc1Cl	7.943	rising, partial curve
O=C(O)C1=CCCN(CCOC(c2ccc(C(F)(F)F)cc2)c2ccc(C(F)(F)F)cc2)C1	3.981	falling, partial curve, poor fit
CC(C)(C)c1ccc(S(=O)(=O)/C=C\C#N)cc1	12.59	falling, full curve
CCn1c(C(=O)N2CCc3ccccc3C2)cc2sccc21	19.95	falling, single point
COc1ccc(-c2nc3cnc(N4CCN(C)CC4)nc3n(Cc3cccc(OC)c3)c2=O)cc1	1.585	rising, full curve
CCc1nc(Nc2ccc3nccnc3c2)c2oc3ccccc3c2n1	1.259	rising, full curve
CCC(C)[C@H](NC(=O)NC1CC1)C(=O)O (some centres unmarked)	0.0631	falling, full curve, poor fit
CC(C)(C)C1CCc2c(sc(NC(=O)c3cc(C4CC4)on3)c2C#N)C1 (centres unmarked)	3.162	falling, partial curve
COc1ccc(-c2nn(C)c(=O)c3ccccc23)cc1CNC(=O)CN1CCOCC1	19.95	rising, partial curve, poor fit
CN(C)CCCNc1c2c(nc3ccc(Cl)cc13)CCCC2	3.981	falling, single point
CC(=O)c1c(C)[nH]c(C(=O)N2CCc3ccccc3C2)c1C	1.585	falling, partial curve
Cc1cc(=O)oc2cc(O)ccc12	5.012	rising, single point
O=C(CSc1nnc(-c2cccnc2)n1-c1ccccc1)NCc1ccc2c(c1)OCO2	0.1259	falling, full curve, poor fit
O=c1c2cnn(-c3ccccc3)c2nc(-c2ccco2)n1-c1ccccc1	31.62	falling, single point
COc1ccc(S(=O)(=O)N(C(C)=O)c2ccc3oc(=O)sc3c2)cc1	2.512	falling, full curve
O=C1OC(N2CCN(C(=O)C3CCCO3)CC2)c2ccccc21 (centres unmarked)	0.01995	falling, full curve, poor fit
O=C(O)CCCCCNCc1ccncc1	0.631	falling, full curve, poor fit
Cc1ccc2c(c1)-c1c(ssc1=S)C(C)(C)N2C(=O)CSc1nncn1C	10	falling, single point

Repeated from the top, 7 entries:

O=c1c(-c2cc(F)cc(F)c2)nc2cnc(N3CCOCC3)nc2n1C[C@H]1CCCO1 read AC50 10 µM (rising, partial curve).
CCCCNc1nc(C)nc2c1nc(-c1ccccc1)n2C1CCN(Cc2ccccc2)C1 (centres unmarked) read AC50 15.85 µM (falling, single point).
COC(=O)c1ccc(-c2n[nH]c(=O)c3ccccc23)cc1 read AC50 12.59 µM (rising, single point).
O=C(NC1CCCC1)C(c1ccc(O)cc1)N(CC1CCCO1)C(=O)C1COc2ccccc2O1 (centres unmarked) read AC50 6.31 µM (rising, partial curve).
Cn1c(CN2CCOCC2)nc2cc(NC(=O)c3ccc(F)cc3)ccc21 read AC50 5.012 µM (falling, single point).
CCCCCCCC/C=C\CCCCCCCC(=O)N[C@@H](CO)Cc1ccc(O)cc1 read AC50 19.95 µM (falling, partial curve).
CC[N+](C)(CC)CCN1C(=O)c2ccccc2S1(=O)=O read AC50 0.1 µM (falling, single point).